Test results from publication PMC7876245.
No constants are given. Whether binding was seen depends on the method and setting. In cells and extracts the contact can be indirect. Some binding calls cover weakened binding; strength is not graded here.

By UniProt entry, the sequences of proteins in these tests, tags left out.
UniProt Q8K1M6: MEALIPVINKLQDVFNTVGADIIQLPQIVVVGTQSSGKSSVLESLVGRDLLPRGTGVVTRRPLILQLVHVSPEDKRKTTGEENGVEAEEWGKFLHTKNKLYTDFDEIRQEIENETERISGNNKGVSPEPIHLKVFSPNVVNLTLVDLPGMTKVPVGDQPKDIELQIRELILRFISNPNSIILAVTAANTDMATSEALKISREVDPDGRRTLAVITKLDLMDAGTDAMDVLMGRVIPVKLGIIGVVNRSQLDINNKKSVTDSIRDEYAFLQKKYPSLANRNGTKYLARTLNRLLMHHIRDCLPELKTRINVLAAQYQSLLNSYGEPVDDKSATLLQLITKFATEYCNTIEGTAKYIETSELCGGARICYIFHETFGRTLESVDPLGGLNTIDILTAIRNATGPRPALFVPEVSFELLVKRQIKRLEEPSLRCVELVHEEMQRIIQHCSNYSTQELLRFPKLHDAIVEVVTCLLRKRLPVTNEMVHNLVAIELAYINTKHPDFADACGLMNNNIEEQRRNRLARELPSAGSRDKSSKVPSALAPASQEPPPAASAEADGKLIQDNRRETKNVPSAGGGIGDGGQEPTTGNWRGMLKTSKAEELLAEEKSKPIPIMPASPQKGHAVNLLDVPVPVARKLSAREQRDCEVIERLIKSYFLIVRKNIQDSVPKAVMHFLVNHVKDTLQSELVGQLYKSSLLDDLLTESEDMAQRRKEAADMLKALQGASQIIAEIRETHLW

Molecular target: dynamin-related protein 1 (mouse (endogenous in primary astrocytes)) (UniProt Q8K1M6)
Test: co-IP; lysates of primary astrocytes (WT and kir6.2-/- mice, treated with CON-MCM or LPS-MCM for 24 h) incubated overnight with anti-Drp1 or anti-Fis1 antibody (or mouse/rabbit IgG), then protein A/G-agarose beads 4 h at 4°C; western blot for Drp1 and Fis1; both orientations (IP Drp1, blot Fis1; IP Fis1, blot Drp1)

B1: mitochondrial fission 1 (protein, UniProt Q9CQ92 1-152)
chain: MEAVLNELVSVEDLKNFERKFQSEQAAGSVSKSTQFEYAWCLVRSKYNEDIRRGIVLLEELLPKGSKEEQRDYVFYLAVGNYRLKEYEKALKYVRGLLQTEPQNNQAKELERLIDKAMKKDGLVGMAIVGGMALGVAGLAGLIGLAVSKSKS
In the case of B1, the binding is reported as “binds”.
